The results in this text go back to PMC7819943, “Rice protein-binding microarrays: a tool to detect cis-acting elements near promoter regions in rice”.

Protein sequences, listed by entry. Tags and fused reporters are not part of them.
UniProt Q0JBA9, entry or part of it: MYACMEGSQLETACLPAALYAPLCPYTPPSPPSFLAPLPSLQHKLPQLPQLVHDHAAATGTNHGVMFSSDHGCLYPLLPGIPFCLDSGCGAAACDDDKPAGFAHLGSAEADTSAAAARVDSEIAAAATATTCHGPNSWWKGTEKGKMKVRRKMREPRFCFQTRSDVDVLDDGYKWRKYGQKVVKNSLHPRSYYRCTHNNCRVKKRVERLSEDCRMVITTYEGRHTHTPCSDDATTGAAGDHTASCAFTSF

Some of the results follow.

This test concerns the target OsWRKY34 (Oryza sativa, UniProt Q0JBA9 1-250). The experiment in a line: protein-binding microarray (RPBM); PBS, 2% BSA, 51.3 ng/ul salmon testes DNA, 50 uM zinc acetate, 200 nM TF, 25 C, 1 h; high values mean tight binding. Conditions: protein: recombinant; tags: N-terminal polyhistidine and DsRed monomer fusion (pET32a); label: CyDye5-dUTP incorporated in the synthesized complementary strand; 3' TTTTT single-stranded linker to array surface; dsDNA, one strand shown. A digest of the protocol: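 Transcription factors, each fused N-terminally to a polyhistidine tag and DsRed, were expressed in E. coli BL21-CodonPlus and purified on Ni–NTA. A custom Agilent array was made double-stranded by primer extension with Cy5-dUTP and blocked with 2% BSA. It was incubated with 200 nM protein in PBS, 2% BSA, salmon testes DNA and 50 µM zinc acetate at 25 °C for 1 h, then washed. The binding signal is per-feature fluorescence intensity (arbitrary units) read on an Axon 4000B scanner.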
“ACTTGTAAGTTGTGAATCTTATTTCTGCATATCGCATCAACGGAGTCACCTAGTGCAG”: the binding signal is 9230 fluorescence intensity (a.u.).

Regarding “TGAGAAGCACCGCTCTCTCCTGCACCCGTCTCACGTGCACCGGAGTCACCTAGTGCAG”, the binding signal is 8300 fluorescence intensity (a.u.).

Turning to “GTTTTGACTTTTTTTTCTAATAAAATTTCTTTTATGTTTGCGGAGTCACCTAGTGCAG”, the binding signal is 18600 fluorescence intensity (a.u.).

With “GTCAACCCTGCGGCTTCCAAATGACATAAGCAGAGAAACACGGAGTCACCTAGTGCAG”, the binding signal was 8220 fluorescence intensity (a.u.).

For the sequence “TAATAAAAATAGTGTCCTGTTTGCTTACCATTCATTATTCCGGAGTCACCTAGTGCAG”, the binding signal was 9540 fluorescence intensity (a.u.).

On to “TTCCTATCATTTGATTCATTGTTAAATATATTTTTATGTACGGAGTCACCTAGTGCAG”, for which the binding signal is 8280 fluorescence intensity (a.u.).

“GCGCCGCTTCTGATTGCTCCGCCTCGCGTTGATGCGCTGCCGGAGTCACCTAGTGCAG”: the binding signal was 8530 fluorescence intensity (a.u.).

“GCCAACCCGCCGCCCACGCGGGCCTTCCTCGCCGGCGCCGCGGAGTCACCTAGTGCAG”: the binding signal is 8100 fluorescence intensity (a.u.).

“ATGTCAACTGTAGTTTTTGTTTTCCTTTCTAGAGATTATTCGGAGTCACCTAGTGCAG”: the binding signal was 11500 fluorescence intensity (a.u.).

Consider “CTCTGATAGATTGCGACCTTCTTGTTGTTTAACAACGTTACGGAGTCACCTAGTGCAG”, for which the binding signal was 8060 fluorescence intensity (a.u.).

“CTGTGCTTTCCATCCATCCACTCCCACGAACCGCACCTCACGGAGTCACCTAGTGCAG”: the binding signal was 10700 fluorescence intensity (a.u.).

As for “CTCACCGCCGATCGATCGAGACGACGCATCACCCATCTCACGGAGTCACCTAGTGCAG”, the binding signal was 9080 fluorescence intensity (a.u.).

On to “AAGATCATCACAATTCATCACTCACAACCACATCACATCCCGGAGTCACCTAGTGCAG”, for which the binding signal was 8020 fluorescence intensity (a.u.).

As to “TGTTTCTTTCGTGCAATTCTTGCGCCGCGCAGGCGTTTGGCGGAGTCACCTAGTGCAG”, the binding signal was 8170 fluorescence intensity (a.u.).

For “CTGACATCTTCTCATCTTCTAGTTGTGTAATATTTTTGCACGGAGTCACCTAGTGCAG”, the binding signal was 9500 fluorescence intensity (a.u.).

Take “GTTTCCATTTATCTGTTCGCAGTCAGTTCCAAGAAGTACCCGGAGTCACCTAGTGCAG”: the binding signal was 8340 fluorescence intensity (a.u.).

For the sequence “ACAAATTTGACTATTTTCAGTTAACCCTTACCCAACAATTCGGAGTCACCTAGTGCAG”, the binding signal is 9700 fluorescence intensity (a.u.).

Regarding “AATTCAACGCACGTCTCTTGTCCTGCACTTCTGCTATGCCCGGAGTCACCTAGTGCAG”, the binding signal is 11000 fluorescence intensity (a.u.).

Turning to “TCTTGTTGTATTTTCTTATATTCATGAATTGGCAACCACTCGGAGTCACCTAGTGCAG”, the binding signal was 10600 fluorescence intensity (a.u.).

Regarding “TTTCTCTTCTCCGGCCGCCGTGTTCGTCGCCGCCATCCCACGGAGTCACCTAGTGCAG”, the binding signal was 12000 fluorescence intensity (a.u.).

Regarding “ATACACACCACCGCACCGTATGAAGTAGGGACCACGACACCGGAGTCACCTAGTGCAG”, the binding signal was 10000 fluorescence intensity (a.u.).

As for “ACCGCACCGCCTTCGCACCACACCGGCACATCACCGCCAGCGGAGTCACCTAGTGCAG”, the binding signal was 9530 fluorescence intensity (a.u.).

As to “ACGTTGTTTTGGCATCCTATAGGGGCAATCTCGCATGTGTCGGAGTCACCTAGTGCAG”, the binding signal was 9850 fluorescence intensity (a.u.).

Take “AACAAACACCCGTGTGATTTTGCCCCGTTGTCTCACTGACCGGAGTCACCTAGTGCAG”: the binding signal is 8940 fluorescence intensity (a.u.).

Take “CTCCCCATCTCGGCCTCCTCGCCGCCACCATCCGCCTCTACGGAGTCACCTAGTGCAG”: the binding signal was 9370 fluorescence intensity (a.u.).

On to “GCAGTTTCACCGATAAATTTCTCGCAATCCCATTGACCGCCGGAGTCACCTAGTGCAG”, for which the binding signal was 9160 fluorescence intensity (a.u.).

On to “GCGGCGCCTCCTGTTTCGCCCCAACCCCGTCCTTCTCCTCCGGAGTCACCTAGTGCAG”, for which the binding signal was 8540 fluorescence intensity (a.u.).

As for “CCATCACGTCGACCTACGCTGTGCGGAGCTCATCGCCTTCCGGAGTCACCTAGTGCAG”, the binding signal was 8570 fluorescence intensity (a.u.).

As to “CATTGTTCTTCGTCTTTTGTGTCCTTGTTTGATTTGCTGCCGGAGTCACCTAGTGCAG”, the binding signal was 9850 fluorescence intensity (a.u.).

Regarding “AATTGTGTGTGCTTACCTTTTTCGTTTCCATTGATATCTACGGAGTCACCTAGTGCAG”, the binding signal was 12400 fluorescence intensity (a.u.).

For the sequence “CTTATCTTGGCCACTTGGAATGTGCACTATGTTGATTTGTCGGAGTCACCTAGTGCAG”, the binding signal is 8680 fluorescence intensity (a.u.).

For the sequence “TAACACGTCAGGACAACCACCATTAGCATCTGACAGCTACCGGAGTCACCTAGTGCAG”, the binding signal is 8260 fluorescence intensity (a.u.).

“GTCATCTTCTCTGCCCTTTGACGCGGTCTCGCTCGCGACCCGGAGTCACCTAGTGCAG”: the binding signal was 8280 fluorescence intensity (a.u.).

In the case of “CTAACACTTTCAACCTTTCCAATCGTACAATTGATCCAGCCGGAGTCACCTAGTGCAG”, the binding signal was 8140 fluorescence intensity (a.u.).

On to “AAGTTACTAGATGTAGTGCGATCAGCTGTTTTGCTCTGCCCGGAGTCACCTAGTGCAG”, for which the binding signal is 8690 fluorescence intensity (a.u.).

With “CAGGGCGCTCCTCTCTTACCACCGGCCTTATCTTGCATGCCGGAGTCACCTAGTGCAG”, the binding signal was 9710 fluorescence intensity (a.u.).

As for “ACACCGTCTCCTTCTTCAAGGACCTCGGCGCCAACCTCGGCGGAGTCACCTAGTGCAG”, the binding signal is 8610 fluorescence intensity (a.u.).

As for “CGTTTGACCAGATGTTGGAAGGGGTTTTCGGACACGAATGCGGAGTCACCTAGTGCAG”, the binding signal was 8060 fluorescence intensity (a.u.).

Regarding “GTCGGCCCGCTGGTTTGCTTTCCTCCATCGCTTCACGTAACGGAGTCACCTAGTGCAG”, the binding signal is 8420 fluorescence intensity (a.u.).

For “CTGTATGTCTTGCATTGTGTGACTGTCTGTGAAGTTGGGACGGAGTCACCTAGTGCAG”, the binding signal is 9320 fluorescence intensity (a.u.).

On to “GCGGTGGAGGCGGAAGGGGTGGGATTAGGCTGTGGCGCGGCGGAGTCACCTAGTGCAG”, for which the binding signal is 14000 fluorescence intensity (a.u.).

Regarding “ATGAGGTGACGAAACACTTTACTTTTTTTACTACTTTAGACGGAGTCACCTAGTGCAG”, the binding signal is 8080 fluorescence intensity (a.u.).

As to “CCGCGATGGTTTGTTTGCCACTATTTTATGGCTTGGTTTTCGGAGTCACCTAGTGCAG”, the binding signal was 11800 fluorescence intensity (a.u.).

For the sequence “GTTGCAAGTATCACACCAAGTATCATTTTGCCCTAGTGGACGGAGTCACCTAGTGCAG”, the binding signal is 8370 fluorescence intensity (a.u.).

On to “GGCAAAATTACACTGTATTACAGACCGTTAGTAACGTACACGGAGTCACCTAGTGCAG”, for which the binding signal is 8460 fluorescence intensity (a.u.).

Take “ACACTCACACGAACGACTGACTTTTGTAGCCACACCACCTCGGAGTCACCTAGTGCAG”: the binding signal is 9430 fluorescence intensity (a.u.).

Regarding “GGGTTCCGTCCATTCCGCGCCGTTAAATGCATGTTCATTCCGGAGTCACCTAGTGCAG”, the binding signal was 10800 fluorescence intensity (a.u.).

Take “CCCTCCCGCCTATTCGTCCGCCGCCTCAACCGGGACACCGCGGAGTCACCTAGTGCAG”: the binding signal is 8580 fluorescence intensity (a.u.).

As for “GTCATTGTGCCCTGCAGCCTGTCTTGTTTCAAAATATAATCGGAGTCACCTAGTGCAG”, the binding signal was 9970 fluorescence intensity (a.u.).

Turning to “GCCCATTTTCCCAACCCACCTCTCTCGTTTTCCGCACGTACGGAGTCACCTAGTGCAG”, the binding signal is 10700 fluorescence intensity (a.u.).

On to “CCATTTGCTCGCTGTTTAACGTCCTTCCATCAACCATGTGCGGAGTCACCTAGTGCAG”, for which the binding signal is 10700 fluorescence intensity (a.u.).

As to “ATAATTTATTTGGTCACTTCCATGTTCATGACTAGTCTTCCGGAGTCACCTAGTGCAG”, the binding signal was 9480 fluorescence intensity (a.u.).

For the sequence “GTCTGCTTATGATGCTTCGTTCTCTCCGCGCTCCGTGTCCCGGAGTCACCTAGTGCAG”, the binding signal was 8620 fluorescence intensity (a.u.).

As for “GGATAGCCGGAACGCGAAGCGGGAGGAGGCGGTGGCGGGGCGGAGTCACCTAGTGCAG”, the binding signal was 10500 fluorescence intensity (a.u.).
